{"sequences": {"note": "Amino acid sequences for entries named in this document (tags omitted). A change or cut given only in a name is not applied to a line headed by its entry.", "UniProt P38247": "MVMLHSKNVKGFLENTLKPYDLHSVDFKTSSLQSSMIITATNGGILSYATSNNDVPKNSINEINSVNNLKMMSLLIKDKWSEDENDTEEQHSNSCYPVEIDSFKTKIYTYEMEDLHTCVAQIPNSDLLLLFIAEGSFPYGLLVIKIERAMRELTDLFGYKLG"}, "source": "paper PMC10023571", "about": "“EGOC inhibits TOROID polymerization by structurally activating TORC1” (Nature Structural & Molecular Biology, 2023)", "target": "T1, Ego1(∆1-111:His6) (S. cerevisiae) (UniProt Q02205)", "T1 sequence": "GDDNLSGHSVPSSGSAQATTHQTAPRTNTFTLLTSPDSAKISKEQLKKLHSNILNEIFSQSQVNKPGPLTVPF", "experiment": "SEC; EGOC components co-expressed in E. coli, Ni-NTA by the His6 on Ego1, then Superdex GF200 Increase in 50 mM MES-NaOH pH 6.0, 300 mM NaCl, 0.15% CHAPS, 1 mM MgCl2, 0.5 mM DTT; fractions on Coomassie-stained SDS-PAGE; both purified", "note": "No constants are given. Whether binding was seen depends on the method and setting. Binding calls can cover weak binding; strength is not graded here. Tags and fused reporters may be left off the sequences shown."}
{"substance": "Ego3 (from UniProt P38247)", "values": [{"measurement": "binding", "value": "binds"}]}
